Construct, isoform or probe ends are uncertain for at least one entry. No signal at the amounts used counts as a negative.
Tested on: PSHCP1-62
Assay: competition with a labelled probe
Details: ITC, equimolar dsGCDNA does not compete with tRNA, 25 mM NaCl, 75 mM KCl

## CCGCGCGCGCGG (double strand) [dsGCDNA]
  binding result: no binding
